A short description of this data set: Open circuit potential of PVB-coated panels (panel as working electrode). Particulars: 5% NaCl-PBS.

The text below walks through data of US20160168724A1, “POLYVINYLBUTYRAL COATING CONTAINING THIOL CORROSION INHIBITORS” (The Boeing Company, priority 2014, published 2016).

Turning to `Sc1nnc(S)s1` [DMcT, 1,3,4-Thiadiazole-2,5-dithiol], the “time for open circuit potential to reach steady state” value (0.5% (wt/wt) DMcT in spray-applied PVB coating, also printed as 14 h) is 50 ks and the “time for open circuit potential to reach steady state” value (5% (wt/wt) DMcT in spray-applied PVB coating, also printed as 28 h) is “approximately 100 ks”.
